The values below come from article PMC8345109, “Optimization of New Catalytic Topoisomerase II Inhibitors as an Anti-Cancer Therapy” (Cancers, 2021).

Sequences of proteins named here, by UniProt entry; tags and fusion partners are left off. A change or cut given only in a name is not applied to a line headed by its entry. Residues count along the entry.
UniProt P11388, 431-1193: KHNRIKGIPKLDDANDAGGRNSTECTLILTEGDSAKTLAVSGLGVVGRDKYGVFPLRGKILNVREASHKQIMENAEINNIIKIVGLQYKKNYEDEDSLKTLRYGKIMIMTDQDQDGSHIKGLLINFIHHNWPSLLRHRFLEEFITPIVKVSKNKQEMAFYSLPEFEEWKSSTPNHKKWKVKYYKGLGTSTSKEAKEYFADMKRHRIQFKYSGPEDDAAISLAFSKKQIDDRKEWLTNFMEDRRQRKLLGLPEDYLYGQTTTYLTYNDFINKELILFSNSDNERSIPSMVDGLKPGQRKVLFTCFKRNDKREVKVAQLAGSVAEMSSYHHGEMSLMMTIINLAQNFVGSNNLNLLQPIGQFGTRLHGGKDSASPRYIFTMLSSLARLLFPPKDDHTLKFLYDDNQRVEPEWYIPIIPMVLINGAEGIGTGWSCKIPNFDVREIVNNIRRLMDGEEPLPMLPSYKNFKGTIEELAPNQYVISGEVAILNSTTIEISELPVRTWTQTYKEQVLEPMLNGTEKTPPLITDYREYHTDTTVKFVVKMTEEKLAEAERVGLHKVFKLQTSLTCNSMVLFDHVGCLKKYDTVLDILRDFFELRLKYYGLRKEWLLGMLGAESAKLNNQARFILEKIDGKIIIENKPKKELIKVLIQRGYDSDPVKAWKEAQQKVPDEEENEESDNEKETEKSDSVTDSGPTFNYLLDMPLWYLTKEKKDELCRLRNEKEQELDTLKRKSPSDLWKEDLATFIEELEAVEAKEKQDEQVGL
UniProt Q02880: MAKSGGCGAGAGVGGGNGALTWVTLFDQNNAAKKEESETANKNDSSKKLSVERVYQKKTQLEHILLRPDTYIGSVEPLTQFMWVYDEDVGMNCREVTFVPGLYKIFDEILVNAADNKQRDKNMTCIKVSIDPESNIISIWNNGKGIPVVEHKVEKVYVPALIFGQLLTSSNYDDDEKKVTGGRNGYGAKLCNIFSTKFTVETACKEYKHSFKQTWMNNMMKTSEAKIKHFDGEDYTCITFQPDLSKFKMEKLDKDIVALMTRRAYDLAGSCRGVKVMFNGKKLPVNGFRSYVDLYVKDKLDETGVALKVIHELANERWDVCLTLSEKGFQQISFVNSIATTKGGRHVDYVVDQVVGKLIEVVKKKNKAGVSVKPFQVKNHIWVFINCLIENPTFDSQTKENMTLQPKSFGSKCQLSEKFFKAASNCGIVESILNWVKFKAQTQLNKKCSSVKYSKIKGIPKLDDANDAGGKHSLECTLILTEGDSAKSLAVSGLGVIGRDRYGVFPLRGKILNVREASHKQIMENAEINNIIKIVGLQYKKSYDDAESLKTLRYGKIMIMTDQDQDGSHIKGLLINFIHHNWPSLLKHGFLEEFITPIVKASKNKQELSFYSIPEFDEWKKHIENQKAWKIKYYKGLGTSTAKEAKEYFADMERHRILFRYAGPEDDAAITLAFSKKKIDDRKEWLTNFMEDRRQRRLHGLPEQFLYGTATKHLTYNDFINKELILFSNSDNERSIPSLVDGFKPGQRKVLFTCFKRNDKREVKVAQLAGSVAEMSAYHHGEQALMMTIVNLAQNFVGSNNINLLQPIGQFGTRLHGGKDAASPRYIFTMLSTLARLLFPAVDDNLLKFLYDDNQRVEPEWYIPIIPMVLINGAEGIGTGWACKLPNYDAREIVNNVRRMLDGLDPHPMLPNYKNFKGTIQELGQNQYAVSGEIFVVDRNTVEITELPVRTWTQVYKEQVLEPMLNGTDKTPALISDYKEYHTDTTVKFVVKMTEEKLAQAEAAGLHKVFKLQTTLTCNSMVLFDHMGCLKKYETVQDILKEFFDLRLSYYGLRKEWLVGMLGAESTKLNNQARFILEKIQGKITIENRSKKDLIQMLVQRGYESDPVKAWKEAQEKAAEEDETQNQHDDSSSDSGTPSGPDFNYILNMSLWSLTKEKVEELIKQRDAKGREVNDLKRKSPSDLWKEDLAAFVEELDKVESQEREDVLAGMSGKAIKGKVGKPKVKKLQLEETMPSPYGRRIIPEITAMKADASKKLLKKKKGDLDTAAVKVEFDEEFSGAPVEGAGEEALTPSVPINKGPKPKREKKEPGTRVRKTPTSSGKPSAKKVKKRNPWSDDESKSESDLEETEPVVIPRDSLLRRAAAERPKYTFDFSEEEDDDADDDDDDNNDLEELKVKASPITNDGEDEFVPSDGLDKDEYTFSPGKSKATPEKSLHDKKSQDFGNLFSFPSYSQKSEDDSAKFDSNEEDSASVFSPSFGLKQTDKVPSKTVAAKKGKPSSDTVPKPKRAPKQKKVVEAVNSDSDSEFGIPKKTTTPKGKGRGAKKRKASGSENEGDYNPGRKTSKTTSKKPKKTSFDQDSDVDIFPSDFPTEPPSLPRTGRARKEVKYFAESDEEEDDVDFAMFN

Construct, isoform or probe ends are uncertain for at least one entry. Weaker means in comparison with the reference protein, sequence or condition of that experiment. At least one verdict was read from the data and is not stated in words by the source.

Series [1] has as its target TOP2A(431-1193) (Homo sapiens) (UniProt P11388). Kind of series: fluorescence polarization. The note with it: 3 mM Mg2+, FP: 20 mM HEPES-NaOH pH 7.4, 2 mM DTT, 3 mM MgCl2, 0.05% NP-40, protease inhibitors, room temperature 20 min, recombinant protein, residues 431-1193, protein details: N-terminal 6xHis (pET28a), label: 3' 6-FAM (Results text says NT474 dye).
The target of series [2] is TOP2A full-length (Homo sapiens) (UniProt P11388). The series can be described thus: EMSA. The following applies: recombinant protein.
The target of series [3] is TOP2A(431-1193) (Homo sapiens) (UniProt P11388). The series can be described thus: EMSA. The note with it: recombinant protein, residues 431-1193, protein details: N-terminal 6xHis (pET28a).
Series [4] concerns the target TOP2B full-length (Homo sapiens) (UniProt Q02880). The series can be described thus: EMSA. The note with it: recombinant protein.
[5] abbreviates: no inhibitor, 300 nM protein, 100 nM DNA.

Turning to “AGCCGAGCTGCAGCTCGGCT (double strand) [5ZRF DNA oligo (FAM)]”, the binding result was “binds more weakly” in series [1] (T60 0.01-200 uM, dose-dependent); “binds more weakly” in series [1] (T637 0.01-200 uM, dose-dependent); “binds more weakly” in series [1] (T638 0.01-200 uM, dose-dependent); “binds” in series [1] (no inhibitor, 500 nM protein, 1 nM or 2 nM (Methods) DNA).

Turning to “AGCCGAGCTGCAGCTCGGCT (double strand) [5ZRF DNA oligo (IRDye700)]”, the binding result is given as “binds more weakly” in series [2] (200 uM T60); “binds more weakly” in series [2] (200 uM T637); “binds more weakly” in series [2] (200 uM T638); “binds” in series [2] (setting [5]); “binds more weakly” in series [3] (T60, dose-dependent); “binds more weakly” in series [3] (T637, dose-dependent). In addition, the binding result in series [3] (T638, dose-dependent, strongest effect) is listed as “binds more weakly”; in series [3] (no inhibitor, 2 uM protein, 300 nM DNA) it was “binds”; in series [4] (200 uM T60), “binds more weakly”; in series [4] (200 uM T637), “binds more weakly”; in series [4] (200 uM T638), “binds more weakly”; in series [4] (setting [5]) it was “binds”.
